For 59 compounds, cell number change and AC50 results are on record in PubChem BioAssay AID2685 (National Center for Advancing Translational Sciences (NCATS), 2010).

This test is described as follows: qHTS Assay for Lipid Storage Modulators in Drosophila S3 Cells.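 For cell number change: cells counted by Cell Tracker Red CMTPX staining in the red channel.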 As to conditions: BODIPY lipid droplet fluorescence, 18-24 h; for cell number change: measured here: cell count max response, cells fed with added oleic acid. In short, it runs like this: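 Drosophila S3 cells loaded with oleic acid (400 uM, as added) and compounds at several concentrations; lipid droplets imaged by 488-nm laser-scanning cytometry, 500–530 nm intensity and object ratio to cell channel. Percent activity normalized to 20 uM Triacsin C.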
(qHTS replaces the single test concentration by a dilution series.)

[1] abbreviates: measured here: cell number channel AC50, cells fed with added oleic acid.
Setting [2] is: measured here: lipid fluorescence (Fed channel) AC50, cells fed with added oleic acid.

As usually defined, the AC50 is the concentration giving half of the maximal activity seen.

The list shows a part of the results. Shown are side measurements of this screen, not its main read-out; they come without a call. The list favours compounds with an active or inconclusive main result. Words in brackets tell the shape of the fitted curve; partial curves, single points and poor fits give uncertain potencies.

Consider `COc1ccc(OC(=O)CCCN2C(=O)c3ccccc3C2=O)cc1`, for which the cell number change was -12.2%. Further, under setting [1], the AC50 is 6.51 µM [rising, single point].

For `Cn1c(=O)n(-c2ccccc2)c(=O)c2c3c(sc21)COC(C)(C)C3`, the cell number change worked out at 33.6%. Moreover, the AC50 under setting [1] is 29.1 µM [rising, single point]. Besides, the AC50 under setting [2] is 0.082 µM [falling, single point].

Turning to `CCOC(=O)N1CCC(NC(=O)CCN2C(=O)COc3ccccc32)CC1`, the cell number change is -54.2%. Moreover, under setting [1], the AC50 is 25.9 µM [falling, partial curve].

For `CS(=O)(=O)N(CC(=O)N1CCOCC1)c1cccc(Cl)c1Cl`, the cell number change was -6.04%.

`COc1ccc2cc1Oc1ccc(cc1)CC1c3c(cc(OC)c4c3Oc3cc5c(cc3O4)CCNC5C2)CCN1C` (stereo not given): the cell number change is -12.3%.

With `CC1(C)C(=O)N(CCN2CCC(C(=O)c3ccc(F)cc3)CC2)c2ccccc21`, the cell number change is 19.3%. Also, the AC50 under setting [2] was 20.6 µM [rising, single point].

For `CCOC(=O)CSc1nnc(-c2ccco2)n1C`, the cell number change was 0.586%. Besides, the AC50 under setting [2] was 0.206 µM [falling, full curve, poor fit].

For the compound `CCN(Cc1ccccc1)S(=O)(=O)c1ccc(C(=O)N(CCCN(C)C)c2nc3ccc(F)cc3s2)cc1`, the cell number change amounted to 18.3%.

With `CCN1CCN(C(=O)CN(c2ccc(F)c(Cl)c2)S(C)(=O)=O)CC1`, the cell number change is -51.9%. For the same compound, under setting [1], the AC50 is 6.51 µM [falling, partial curve, poor fit]. Moreover, under setting [2], the AC50 is 0.116 µM [falling, full curve].

For `COc1cc2cccc(OC)c(=O)c2c(O)c1OC`, the cell number change turned out to be 15.7%.

For the compound `Cc1nn(C2CCCO2)c(=O)nc1N` (stereo not given), the cell number change was 8.71%. The AC50 under setting [2] is 6.51 µM [falling, partial curve, poor fit].

`CCN(CC(=O)Nc1c(F)cccc1F)C(=O)CCCOc1ccc(OC)cc1`: the cell number change is -11.6%. For the same compound, under setting [2], the AC50 is 29.1 µM [falling, single point].

For `CCc1ccc(NC(=O)c2ccc3c(=O)n4c(nc3c2)CCCCC4)cc1`, the cell number change came to 8.75%. Besides, under setting [2], the AC50 is 0.082 µM [rising, partial curve, poor fit].

With `O=C(c1cccc(F)c1)N1CCN(CC2CC3C=CC2C3)CC1` (stereo not given), the cell number change is -59.8%. For the same compound, the AC50 under setting [1] is 25.9 µM [falling, single point]. Besides, the AC50 under setting [2] was 0.0058 µM [rising, full curve, poor fit].

Turning to `COC(=O)c1ccccc1NC(=O)c1cc([N+](=O)[O-])nn1Cc1ccccc1`, the cell number change turned out to be 171%. The AC50 under setting [1] was 23.1 µM [rising, partial curve]. For the same compound, the AC50 under setting [2] is 18.4 µM [rising, partial curve].

On to `Cc1nc2ccccn2c1C(=O)NNS(=O)(=O)c1ccc(C(C)(C)C)cc1`, for which the cell number change was -68.8%. Moreover, the AC50 under setting [1] is 23.1 µM [falling, single point]. Further, under setting [2], the AC50 was 25.9 µM [falling, partial curve].

As to `COc1ccccc1NC(=O)CSc1nc(=O)n2cc(C)ccc2n1`, the cell number change is -16.1%.

Regarding `COc1ccccc1C(=O)NC(=O)COC(=O)C1CC1C` (stereo not given), the cell number change is -5.71%. Also, the AC50 under setting [1] is 0.82 µM [falling, full curve, poor fit]. For the same compound, under setting [2], the AC50 was 0.326 µM [falling, full curve, poor fit].

For the compound `COC(=O)c1ccc(Cn2c(O)c(N=NC(N)=S)c3ccccc32)o1`, the cell number change was 42.9%. The AC50 under setting [1] is 0.291 µM [rising, full curve].

`Cc1nnnn1/C(=C\c1ccccc1)C(=O)OCC(=O)N(C)C1CCS(=O)(=O)C1` (stereo not given): the cell number change was -25.2%. The AC50 under setting [1] is 0.461 µM [falling, full curve, poor fit]. Also, the AC50 under setting [2] is 0.651 µM [falling, partial curve, poor fit].

Regarding `CCOc1ccc(S(=O)(=O)N(CC)CC)cc1NC(=O)CSCc1c(C)noc1C`, the cell number change amounted to 0.623%. Also, under setting [2], the AC50 is 25.9 µM [rising, single point].

Consider `CCCCNC(=O)COC(=O)c1ccc(N(C)C)cc1`, for which the cell number change is 1.17%.

Take `COc1ccc(-c2csc3ncnc(N4CCN(c5ccccc5)CC4)c23)cc1`: the cell number change is -42.1%. Besides, under setting [1], the AC50 is 13 µM [falling, partial curve].

On to `COc1cc(OC)cc(C(=O)N2CCN(c3ccccn3)CC2)c1`, for which the cell number change is -4.19%. For the same compound, the AC50 under setting [2] is 0.411 µM [rising, partial curve, poor fit].

With `N#CC1(c2ccc(NC(=O)c3ccccc3)cc2)CCCC1`, the cell number change came to 2.67%.

`COC(=O)c1ccc(NC(=O)CC2C(=O)N(c3ccc(C)cc3)C(=O)N2CC(C)C)cc1` (stereo not given): the cell number change amounted to 16.7%. For the same compound, under setting [1], the concentration at half-maximal activity (AC50) is 0.103 µM [falling, full curve, poor fit].

As for `CCN(CC)c1ccc(NC(=O)CCc2nnc3ccc(N4CCCCC4)nn23)c(C)c1`, the cell number change was -5.19%. For the same compound, the AC50 under setting [2] was 2.59 µM [falling, full curve].

As to `CCCCCC(=O)NNC(=S)NC(=O)c1ccc([N+](=O)[O-])cc1`, the cell number change is -8.28%.

In the case of `CC(=O)C1=C(C)Nc2ncnn2C1c1ccc(O)cc1` (stereo not given), the AC50 under setting [2] is 0.731 µM [falling, full curve].

As for `O=C(O)c1ccccc1C(=O)NNc1ccc(F)cc1F`, the cell number change turned out to be 78%.

In the case of `O=C(COc1ccc(-n2cnnn2)cc1)Nc1ccccc1Cl`, the cell number change is 5.86%. For the same compound, the AC50 under setting [2] is 0.00461 µM [falling, full curve, poor fit].

For the compound `Nc1nc(CN2CCN(c3cccc(Cl)c3)CC2)nc(N2CCCc3ccccc32)n1`, the cell number change worked out at 14.6%.

As for `CC(c1n[nH]c(=S)n1-c1ccc(F)cc1)N1CCCCC1` (stereo not given), the cell number change amounted to 24.1%. Besides, the AC50 under setting [1] is 0.00461 µM [rising, full curve, poor fit].

In the case of `CCOc1ccc(CNC(=O)C2CCN(C(=O)N3CC(C)Oc4ccccc43)CC2)cc1` (stereo not given), the cell number change worked out at 19%. In addition, the half-maximal activity concentration (AC50) under setting [2] is 6.51 µM [rising, partial curve, poor fit].

In the case of `CCOc1ccc(CCNC(=O)Cn2c(=O)c3cccn3c3cccnc32)cc1`, the cell number change came out at 35.1%. Further, the AC50 under setting [1] is 25.9 µM [rising, single point].

`COc1cc2nc(/C=C/c3ccc(N(C)C)cc3)sc2cc1SC`: the cell number change was -14.4%. In addition, under setting [2], the AC50 is 29.1 µM [falling, single point].

For `CCC(C)(C)c1ccc(OCCCC[n+]2ccccc2)c(C(C)(C)CC)c1`, the cell number change was -87.4%. Moreover, under setting [1], the AC50 was 20.6 µM [falling, partial curve]. Also, the AC50 under setting [2] was 20.6 µM [falling, partial curve].

Consider `COC(=O)COc1ccc(C2NC(=O)NC(c3ccccc3)=C2C(C)=O)cc1OC` (stereo not given), for which the cell number change is -11.2%. The AC50 under setting [2] was 0.82 µM [falling, full curve, poor fit].

With `COC(=O)C(C(=O)OC)=C(/C=C/C=C/N(C)C)N(C)C`, the cell number change is -12.4%. For the same compound, the AC50 under setting [2] is 0.164 µM [falling, full curve, poor fit].

Take `CCc1noc(C)c1C(=O)Nc1nc(-c2ccc(OC)cc2)cs1`: under setting [1], the AC50 is 2.06 µM [rising, partial curve].

With `C#CCOCCOCCOCCNc1nc(N2CCN(C(=O)[C@H](CCC(=O)O)n3cc(C(N)CO)nn3)CC2)nc(N2CCN(C(=O)[C@H](CCCCN)n3cc(C(N)[C@H](C)CC)nn3)CC2)n1` (stereo not given in full), the AC50 by setting is: under setting [1], 6.51 µM [falling, single point]; under setting [2], 6.51 µM [falling, single point].

Regarding `CCCn1c(SCC(=O)Nc2nc3ccccc3s2)nc2c1c(=O)n(C)c(=O)n2C`, the cell number change was 19.9%. The AC50 under setting [2] is 1.64 µM [rising, partial curve].

For the compound `N#CCC(CNc1ncc(C(F)(F)F)cc1Cl)OC(=O)c1cccc([N+](=O)[O-])c1` (stereo not given), the cell number change was -17.4%. Under setting [1], the AC50 was 6.51 µM [falling, single point].

Turning to `Cc1cc(C)c(O)c(C2(O)C(=O)c3ccccc3C2=O)c1`, under setting [2], the AC50 is 0.13 µM [falling, full curve, poor fit].

Take `O=C(CSc1nc2ccccc2o1)N1c2ccccc2Sc2ccc(C(F)(F)F)cc21`: the cell number change came to 4.93%. For the same compound, under setting [2], the AC50 is 2.31 µM [rising, partial curve, poor fit].

For `CC(C)(Cc1ccccc1)/[N+]([O-])=C\c1ccccc1`, the cell number change was -17.2%. For the same compound, the AC50 under setting [2] was 6.51 µM [rising, single point].

For the compound `Cc1cc(C(=O)CSc2nc(N)cc(N)n2)c(C)n1-c1cccc(C(F)(F)F)c1`, the cell number change was -33.5%. Also, under setting [1], the AC50 is 16.4 µM [falling, single point]. For the same compound, under setting [2], the AC50 was 0.00461 µM [falling, full curve, poor fit].

With `CC(C)c1ccc(NC(=O)CC2Oc3ccccc3NC2=O)cc1` (stereo not given), the cell number change is -20.5%. For the same compound, the AC50 under setting [2] is 29.1 µM [falling, single point].

`CCCCc1ccc(NC(=O)C2CCN(S(C)(=O)=O)CC2)cc1`: the cell number change is -1.75%. Further, the AC50 under setting [2] is 9.2 µM [rising, single point].

Take `O=C(Cn1c(=O)sc2ccccc21)Nc1ccc2c(c1)OCCO2`: the cell number change stood at 17.1%. Further, the AC50 under setting [2] was 1.64 µM [rising, partial curve].

Consider `O=C1NC(=O)/C(=C/c2ccccc2Oc2ccc(Cl)cc2)S1`, for which the cell number change was -76.6%. Besides, the AC50 under setting [1] is 32.6 µM [falling, single point].

`CC(C)Oc1ccc(CN2CCCC(CO)(Cc3ccc(F)cc3)C2)cc1` (stereo not given): the cell number change is -28.3%. Under setting [2], the AC50 is 3.66 µM [falling, full curve].

Regarding `Cc1cc(C)cc(N2C(=O)CC(n3nc(C)cc3C)C2=O)c1` (stereo not given), the AC50 under setting [2] is 1.46 µM [falling, partial curve].

As to `CCN1CCN(S(=O)(=O)c2ccc(Cl)c(C(=O)Nc3cc(Cl)ccc3N3CCOCC3)c2)CC1`, the AC50 under setting [2] is 29.1 µM [falling, single point].

In the case of `Cn1cc(C(=O)N2CCCCC2)c(=O)c2cc(S(=O)(=O)N3CCCC3)ccc21`, the cell number change is 38.9%. The AC50 under setting [1] was 23.1 µM [rising, single point]. Besides, under setting [2], the AC50 is 5.8 µM [falling, single point].

For the compound `COc1ccc(C2CC3(CC(C)(C)NC(SC)=N3)Oc3cc(O)cc(C)c32)cc1` (stereo not given), the AC50 under setting [2] is 29.1 µM [falling, single point].

Turning to `CCSCCNC(=O)c1cncc(Br)c1`, the cell number change stood at 2.18%.

`Cc1cc(NN)nc(NS(=O)(=O)c2ccccc2Cl)n1`: the cell number change is 12.3%. Under setting [2], the AC50 was 0.116 µM [rising, full curve, poor fit].

With `CCOC(=O)CC1C(=O)NCCN1C(=O)c1cccc(OC)c1` (stereo not given), under setting [2], the AC50 was 18.4 µM [rising, partial curve, poor fit].
